No constants are given. Whether binding was seen depends on the method and setting. Some results given as binding are weak or reduced against the parent protein; the word gives no strength. Tags and fused reporters may be left off the sequences shown.
T1: Kap123, C-terminally twin-StrepII-tagged (S. cerevisiae) (UniProt P40069)
T1 sequence: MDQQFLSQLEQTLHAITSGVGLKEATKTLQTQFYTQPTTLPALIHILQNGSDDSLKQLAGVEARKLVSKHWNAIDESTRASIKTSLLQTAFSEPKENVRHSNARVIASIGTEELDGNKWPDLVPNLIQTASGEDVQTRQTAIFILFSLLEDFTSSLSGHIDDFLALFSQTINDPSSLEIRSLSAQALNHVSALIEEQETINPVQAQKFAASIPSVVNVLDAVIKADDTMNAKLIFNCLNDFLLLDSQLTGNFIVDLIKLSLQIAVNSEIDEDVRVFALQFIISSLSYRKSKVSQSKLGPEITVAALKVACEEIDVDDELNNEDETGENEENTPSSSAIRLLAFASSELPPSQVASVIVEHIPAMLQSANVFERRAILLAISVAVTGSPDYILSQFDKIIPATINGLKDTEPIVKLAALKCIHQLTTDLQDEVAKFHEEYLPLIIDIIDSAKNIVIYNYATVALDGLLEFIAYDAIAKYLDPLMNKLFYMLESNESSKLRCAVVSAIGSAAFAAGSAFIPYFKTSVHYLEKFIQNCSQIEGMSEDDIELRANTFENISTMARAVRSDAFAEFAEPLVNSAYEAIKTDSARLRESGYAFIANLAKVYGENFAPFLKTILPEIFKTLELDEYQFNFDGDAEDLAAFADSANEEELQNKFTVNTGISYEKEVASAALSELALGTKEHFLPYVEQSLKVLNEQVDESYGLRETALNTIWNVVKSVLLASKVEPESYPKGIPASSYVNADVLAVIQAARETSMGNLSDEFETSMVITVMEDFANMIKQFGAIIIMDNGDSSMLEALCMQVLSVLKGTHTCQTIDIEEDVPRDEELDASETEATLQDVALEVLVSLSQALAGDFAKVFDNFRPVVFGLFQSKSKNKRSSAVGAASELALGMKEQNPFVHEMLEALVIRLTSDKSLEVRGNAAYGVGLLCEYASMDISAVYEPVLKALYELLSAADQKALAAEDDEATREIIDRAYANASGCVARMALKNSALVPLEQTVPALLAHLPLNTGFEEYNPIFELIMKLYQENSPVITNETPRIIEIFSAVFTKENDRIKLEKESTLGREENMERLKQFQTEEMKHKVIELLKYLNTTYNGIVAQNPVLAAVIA

Amino acid sequences for entries named in this document (tags omitted).
UniProt P02406: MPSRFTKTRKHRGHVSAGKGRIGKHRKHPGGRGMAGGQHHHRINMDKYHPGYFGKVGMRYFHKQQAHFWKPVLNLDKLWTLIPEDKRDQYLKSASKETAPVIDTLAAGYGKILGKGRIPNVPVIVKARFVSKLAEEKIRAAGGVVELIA
UniProt P39705: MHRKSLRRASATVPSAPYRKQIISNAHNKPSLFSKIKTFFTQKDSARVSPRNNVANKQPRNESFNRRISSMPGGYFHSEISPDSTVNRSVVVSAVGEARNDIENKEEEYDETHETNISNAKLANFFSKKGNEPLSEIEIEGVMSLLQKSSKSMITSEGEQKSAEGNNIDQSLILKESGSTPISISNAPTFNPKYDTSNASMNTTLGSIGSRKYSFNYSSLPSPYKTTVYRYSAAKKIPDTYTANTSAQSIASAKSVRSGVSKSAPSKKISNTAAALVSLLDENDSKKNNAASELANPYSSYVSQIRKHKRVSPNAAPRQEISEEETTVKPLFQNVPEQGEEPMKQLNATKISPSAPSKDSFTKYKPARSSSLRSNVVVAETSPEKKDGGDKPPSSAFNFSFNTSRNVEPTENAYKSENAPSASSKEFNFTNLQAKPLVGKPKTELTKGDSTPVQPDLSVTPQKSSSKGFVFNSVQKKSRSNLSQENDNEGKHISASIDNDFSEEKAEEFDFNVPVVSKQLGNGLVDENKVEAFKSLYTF

T2: Sxm1, C-terminally twin-StrepII-tagged (S. cerevisiae) (UniProt Q04175)
T2 sequence: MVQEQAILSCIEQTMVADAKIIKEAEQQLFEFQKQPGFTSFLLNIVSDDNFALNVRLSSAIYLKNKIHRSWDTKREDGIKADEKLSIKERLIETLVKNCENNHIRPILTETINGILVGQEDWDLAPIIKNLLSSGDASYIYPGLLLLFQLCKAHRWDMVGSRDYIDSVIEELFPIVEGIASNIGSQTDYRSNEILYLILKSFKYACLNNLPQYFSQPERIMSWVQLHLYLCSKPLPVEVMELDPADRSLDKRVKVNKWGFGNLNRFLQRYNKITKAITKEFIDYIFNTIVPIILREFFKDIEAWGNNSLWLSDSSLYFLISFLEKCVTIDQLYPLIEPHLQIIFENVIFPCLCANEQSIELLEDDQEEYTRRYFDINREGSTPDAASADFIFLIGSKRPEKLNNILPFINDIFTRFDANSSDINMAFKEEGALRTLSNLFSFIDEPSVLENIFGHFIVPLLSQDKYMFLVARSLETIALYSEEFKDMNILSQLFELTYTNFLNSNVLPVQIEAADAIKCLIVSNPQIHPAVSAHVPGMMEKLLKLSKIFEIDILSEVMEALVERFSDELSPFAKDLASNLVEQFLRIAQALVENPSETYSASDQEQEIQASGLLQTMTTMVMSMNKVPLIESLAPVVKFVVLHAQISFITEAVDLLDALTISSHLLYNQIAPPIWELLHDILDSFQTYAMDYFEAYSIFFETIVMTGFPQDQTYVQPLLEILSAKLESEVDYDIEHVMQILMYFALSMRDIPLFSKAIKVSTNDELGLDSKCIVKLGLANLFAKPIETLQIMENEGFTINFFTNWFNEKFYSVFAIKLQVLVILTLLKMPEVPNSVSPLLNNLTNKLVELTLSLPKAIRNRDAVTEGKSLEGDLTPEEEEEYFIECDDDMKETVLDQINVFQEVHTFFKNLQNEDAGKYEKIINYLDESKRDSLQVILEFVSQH


Legend:
[1] = target: T1, Kap123, C-terminally twin-StrepII-tagged (S. cerevisiae); assay: selective ribosome profiling (SeRP); lysate crosslinked with DSP, RNase I digest, ribosome-nascent chain complexes pelleted through 25% sucrose; twin-StrepII importin purified on Streptactin resin (20 mM Hepes-KOH pH 7.5, 140 mM KCl, 10 mM MgCl2, CHX, 4 °C); ribosome-protected mRNA footprints sequenced, IP/total against a no-bait wildtype; n = 4
[2] = target: T1, Kap123, C-terminally twin-StrepII-tagged (S. cerevisiae); assay: RIP-qPCR; high salt lysis buffer (500 mM KCl) with CHX or puromycin, DSP crosslinking; twin-StrepII Kap123 pulled down on Streptactin resin; co-purified mRNA quantified by TaqMan qPCR relative to total RNA
[3] = target: T2, Sxm1, C-terminally twin-StrepII-tagged (S. cerevisiae); assay: selective ribosome profiling (SeRP); lysate crosslinked with DSP, RNase I digest, ribosome-nascent chain complexes pelleted through 25% sucrose; twin-StrepII importin purified on Streptactin resin (20 mM Hepes-KOH pH 7.5, 140 mM KCl, 10 mM MgCl2, CHX, 4 °C); ribosome-protected mRNA footprints sequenced, IP/total against a no-bait wildtype; n = 4

| binding [1] | binding [2] | binding [3] | Molecule |
| --- | --- | --- | --- |
| binds | – | – | nascent Rpl28 (ribosome-bound nascent chain) (from UniProt P02406 1-149) |
| binds | binds | – | nascent Nup60 (ribosome-bound nascent chain) (from UniProt P39705 1-539) |
| – | binds | – | nascent Nbp1 (ribosome-bound nascent chain) (protein, UniProt P52919 1-319) MLKSVQGLWKDFFGIRDDGRKREYGSLDEVRKRSALRSRRKQMRPTGKSVLKRPRKVTDRKTEEKIRTNRRKTPKRRLTKIFQTIRDVFSNDNENMSKMQNVCGDMTRILKKRSQGRPSYMDTDTAKSRILRSDAFKRKISELKYNKQRISELRSGSSDGSSGKDRNQSLYLDREILLQRQIKKRDEKIKALESKLQSLQEALNYSNEKYRILEDLLDSSNIHPSYTKSRRTMSNLARENDEIKPLKIDLSPSPIRRTNSLFTSSPMKTYNRDGNIPEMQPLQENISPACPTPPYRSRETEKEDETLSPISVDFSSYLS |
| – | – | binds | nascent Efr3 (ribosome-bound nascent chain) (protein, UniProt Q03653 1-782) MQLSMRMMFTPKHQKLVNQCYPTGRTTDKKPKSSETSYLLYYVNSRRSKLEKVSTYLIKRSTSDLNHRRIGNIAVTLDLMNKIVLHCKENLNVFVKDFLYIMNKVLSNNNFNNDVSVVELIELAFSSICQNLDDVLCNGDMEFVQLYQNFVDLFFKIVTERIHNDDMLLKCCIDISNTNSVSSNPQLNHFVSKSVAYTISKFQERNPKFKTLSLEAALESNLGKRLSRTQTRTIGLDKAAEDNHDLSVKALQSYFNTTETDKLNLSIRTLLRCLQSTPNKELLEFVCNGIPVQLRYIVILLLVRQLSDKDKNVNPIVSLKLMSSLLVSDVSIVGLSVLDIMRKLLNFQLKNATNKEVVAQSCITMTDLNHKTYYAEQTSDMLYELLLKLKSDTVKDVEKNAVVEDIDFLVEHITQPSISLELFIDLAHYMKNHIICLFNIVETEVPSSILFSKLYSLLRELDSHGVQKEMMEEIFDKYGKMALLSGLNYFLENVSEPEYTYYSYHLQAANFLKLNDYKSQTEYKMQTRTLFTKEDLLSYYSDTGSNKYSKKGAQILLSRDNQISTSDLLSDSQVRTTPLEYKNVPNAIFSNGKAVYDNNDFAAKQNKFDNSIDDNIEEANDTVISDANAKGSIYRFVAEDARSWKTMRATAPKVSDLKKTMNEKNIPNNMKRDGSFRGSQSVKSRVTNITFLLNELKTFSDDANKIKDPDEENIVGLDKIDVARSNSLRLAPISSLSDRSSIGNRKSFLQKTATGENQNDDFKDANEDLHSLSSRGKIFSST |
